Results as given in publication doi:10.1101/2021.12.30.474394.
These are yes or no findings as the source states them, for the method shown. Binding seen in cells or lysates may run through a third protein. Some binding calls cover weakened binding; strength is not graded here.

Amino acid sequences for entries named in this document (tags omitted). A change or cut given only in a name is not applied to a line headed by its entry. Residues count along the entry.
UniProt O60563, 210-580, stated change not applied: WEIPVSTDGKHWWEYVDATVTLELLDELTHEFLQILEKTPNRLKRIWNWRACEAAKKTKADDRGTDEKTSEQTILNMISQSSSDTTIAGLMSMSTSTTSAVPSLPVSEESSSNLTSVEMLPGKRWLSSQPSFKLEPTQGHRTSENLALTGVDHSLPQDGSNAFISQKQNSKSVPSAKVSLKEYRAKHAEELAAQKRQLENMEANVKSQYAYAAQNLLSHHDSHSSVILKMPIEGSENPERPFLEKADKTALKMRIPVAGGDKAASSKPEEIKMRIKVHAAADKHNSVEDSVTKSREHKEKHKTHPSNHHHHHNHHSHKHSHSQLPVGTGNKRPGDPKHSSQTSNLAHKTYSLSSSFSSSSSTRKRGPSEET
UniProt O60563, 260-580, stated change not applied: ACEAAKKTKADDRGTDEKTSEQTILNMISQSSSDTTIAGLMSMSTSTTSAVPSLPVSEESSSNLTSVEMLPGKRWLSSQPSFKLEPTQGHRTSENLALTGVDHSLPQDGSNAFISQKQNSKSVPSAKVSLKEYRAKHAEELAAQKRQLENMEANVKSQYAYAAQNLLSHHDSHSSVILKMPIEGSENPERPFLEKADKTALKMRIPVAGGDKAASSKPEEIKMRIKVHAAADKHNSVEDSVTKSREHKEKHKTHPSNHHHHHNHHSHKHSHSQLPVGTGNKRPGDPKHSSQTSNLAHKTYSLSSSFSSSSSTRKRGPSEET
UniProt O60563, 430-726, stated change not applied: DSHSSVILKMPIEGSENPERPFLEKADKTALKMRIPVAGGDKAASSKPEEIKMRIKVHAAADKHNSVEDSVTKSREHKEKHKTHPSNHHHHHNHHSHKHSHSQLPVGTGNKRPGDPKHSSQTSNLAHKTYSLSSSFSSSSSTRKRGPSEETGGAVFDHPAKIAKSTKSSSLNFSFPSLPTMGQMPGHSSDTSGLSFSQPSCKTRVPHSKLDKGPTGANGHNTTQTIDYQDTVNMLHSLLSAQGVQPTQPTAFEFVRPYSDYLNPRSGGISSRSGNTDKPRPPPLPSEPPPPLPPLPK

How the values were obtained:
Experiment in all cases: co-IP
mutant CycT1(260-580) = mutant CycT1(260-580) (UniProt O60563)
mutant CycT1(210-580) = mutant CycT1(210-580) (UniProt O60563)
mutant CycT1(430-726) = mutant CycT1(430-726) (UniProt O60563)

| binding (mutant CycT1(260-580)) | binding (mutant CycT1(210-580)) | binding (mutant CycT1(430-726)) | Binder |
| --- | --- | --- | --- |
| no binding | binds | no binding | DN Siah1C75S (enzyme, UniProt Q8IUQ4 1-282) MSRQTATALPTGTSKCPPSQRVPALTGTTASNNDLASLFECPVCFDYVLPPILQCQSGHLVCSNCRPKLTCCPTSRGPLGSIRNLAMEKVANSVLFPCKYASSGCEITLPHTEKADHEELCEFRPYSCPCPGASCKWQGSLDAVMPHLMHQHKSITTLQGEDIVFLATDINLPGAVDWVMMQSCFGFHFMLVLEKQEKYDGHQQFFAIVQLIGTRKQAENFAYRLELNGHRRRLTWEATPRSIHEGIATAIMNSDCLVFDTSIAQLFAENGNLGINVTISMC |
| no binding | binds | no binding | WT Siah2 (enzyme, UniProt O43255 1-324) MSRPSSTGPSANKPCSKQPPPQPQHTPSPAAPPAAATISAAGPGSSAVPAAAAVISGPGGGGGAGPVSPQHHELTSLFECPVCFDYVLPPILQCQAGHLVCNQCRQKLSCCPTCRGALTPSIRNLAMEKVASAVLFPCKYATTGCSLTLHHTEKPEHEDICEYRPYSCPCPGASCKWQGSLEAVMSHLMHAHKSITTLQGEDIVFLATDINLPGAVDWVMMQSCFGHHFMLVLEKQEKYEGHQQFFAIVLLIGTRKQAENFAYRLELNGNRRRLTWEATPRSIHDGVAAAIMNSDCLVFDTAIAHLFADNGNLGINVTISTCCP |
